PubChem BioAssay AID1159584 – Peter MacCallum Cancer Centre, 2016
Assay: 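Genes that CDH1-null MCF10A cells selectively depend on to survive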 (primary screen). Cell system: human MCF10A breast epithelial cells, parental and CDH1-null. Knock-down reagent: siRNA against human genes. Detection: 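Cell viability by CellTiter-Glo ATP luminescence, each line scaled to the mean of mock wells across plates, then CDH1-null over parental ratio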. Scale: CDH1-null / parental viability ratio: higher = CDH1-null cells survive relatively better than parental; CDH1-null viability vs mock: higher = more viable CDH1-null cells; parental viability vs mock: higher = more viable parental cells.
The whole screen tested about 18,000 reagents; this is an unselected part. Reagents against one gene are numbered here. No sequences are given here. Not stated in the record: the amount of reagent, the time to read-out.

gene symbol	reagent	CDH1-null / parental viability ratio	CDH1-null viability vs mock (fraction of mock)	parental viability vs mock (fraction of mock)
MOXD1	1	0.99	0.91	0.92
DHX32	1	1.44	0.91	0.63
CARD16	1	0.81	0.96	1.19
RAC1	1	0.81	0.58	0.72
DNALI1	1	0.95	0.52	0.55
C1orf162	1	0.74	0.64	0.87
EPDR1	1	0.89	0.62	0.7
LYG1	1	1.23	0.86	0.7
RPS12	1	1.19	0.38	0.32
TNFRSF12A	1	1.05	0.82	0.78
FBRS	1	0.88	0.65	0.74
BIK	1	0.91	0.62	0.68
HSP90AB1	1	1.04	1.01	0.97
ZNF564	1	0.9	0.6	0.67
CDK5R2	1	1.04	0.79	0.76
MBD6	1	0.98	1.08	1.1

Records above whose gene name begins with C or c:
gene symbol	reagent	CDH1-null / parental viability ratio	CDH1-null viability vs mock (fraction of mock)	parental viability vs mock (fraction of mock)
CARD16	1	0.81	0.96	1.19
C1orf162	1	0.74	0.64	0.87
CDK5R2	1	1.04	0.79	0.76

The listing continues:
gene symbol	reagent	CDH1-null / parental viability ratio	CDH1-null viability vs mock (fraction of mock)	parental viability vs mock (fraction of mock)
NRDE2	1	1.07	0.94	0.88
AGAP6	1	0.98	0.8	0.82
THBS2	1	1.21	0.81	0.67
MAP3K7	1	0.82	0.61	0.74
SCML4	1	1.12	0.92	0.82
PTRH2	1	0.8	0.75	0.94
TSC22D3	1	1.21	0.64	0.53
LY9	1	0.91	0.64	0.7
CYP4B1	1	1.45	0.93	0.64
SPATC1	1	1.13	1.04	0.92
POP1	1	1.02	0.63	0.62
HDIP1	1	1.66	0.96	0.58
CLCA1	1	1.1	0.99	0.9
GBA2	1	0.88	0.82	0.93
RAB11FIP5	1	0.74	0.5	0.68
SCO2	1	1.09	0.49	0.45
DRC5	1	1.06	0.68	0.64
ALG8	1	1.12	1.1	0.98
ZNF790	1	0.92	0.69	0.75
SYTL3	1	0.84	0.76	0.9
OR2M3	1	0.92	0.68	0.74
S1PR3	1	1.45	0.96	0.66
S1PR3	2	0.84	0.92	1.1
COX8C	1	0.9	0.91	1.01
CDC37L1	1	1.02	0.98	0.96
IFNGR1	1	1.13	1.02	0.9
SGSM1	1	1.01	0.85	0.84
OR5M3	1	1.05	0.8	0.76
FAM114A1	1	0.71	0.6	0.85
TEX12	1	1.06	0.72	0.68
